These are yes or no findings as the source states them, for the method shown. In cells and extracts the contact can be indirect. Some entries that bind do so weakly or less than the wild type. Tags and fused reporters may be left off the sequences shown.

This assay deals with T1, GFP-tagged murine KIR2.1 (mouse) (UniProt P35561).
T1 sequence: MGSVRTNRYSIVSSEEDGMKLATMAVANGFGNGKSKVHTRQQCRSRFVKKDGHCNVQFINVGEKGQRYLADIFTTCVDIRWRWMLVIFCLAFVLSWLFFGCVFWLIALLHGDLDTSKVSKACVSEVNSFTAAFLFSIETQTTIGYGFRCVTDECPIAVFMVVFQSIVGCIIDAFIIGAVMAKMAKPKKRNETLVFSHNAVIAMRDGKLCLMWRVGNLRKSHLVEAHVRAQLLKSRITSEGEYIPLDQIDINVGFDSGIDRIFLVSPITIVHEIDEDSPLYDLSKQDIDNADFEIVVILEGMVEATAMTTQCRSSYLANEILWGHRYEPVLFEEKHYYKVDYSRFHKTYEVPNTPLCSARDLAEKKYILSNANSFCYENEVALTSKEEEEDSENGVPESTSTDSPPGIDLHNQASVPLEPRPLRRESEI
Briefly: co-IP; HEK293T cells co-transfected with GFP-tagged KIR2.1 and non-tagged WT or ΔPEST KIR2.1; IP with GFP antibody; Western blot with N-terminal KIR2.1 antibody. A general note: Immunoblotting shows a protein as a band on a membrane.

B1: human WT KIR2.1 (non-tagged) (protein, UniProt P63252 1-427)
chain: MGSVRTNRYSIVSSEEDGMKLATMAVANGFGNGKSKVHTRQQCRSRFVKKDGHCNVQFINVGEKGQRYLADIFTTCVDIRWRWMLVIFCLAFVLSWLFFGCVFWLIALLHGDLDASKEGKACVSEVNSFTAAFLFSIETQTTIGYGFRCVTDECPIAVFMVVFQSIVGCIIDAFIIGAVMAKMAKPKKRNETLVFSHNAVIAMRDGKLCLMWRVGNLRKSHLVEAHVRAQLLKSRITSEGEYIPLDQIDINVGFDSGIDRIFLVSPITIVHEIDEDSPLYDLSKQDIDNADFEIVVILEGMVEATAMTTQCRSSYLANEILWGHRYEPVLFEEKHYYKVDYSRFHKTYEVPNTPLCSARDLAEKKYILSNANSFCYENEVALTSKEEDDSENGVPESTSTDTPPDIDLHNQASVPLEPRPLRRESEI
In the case of B1, the binding result is “binds”.
